Results reported in the supplement of paper PMC10849652.
The other results are listed elsewhere or left out.

Chains of the proteins cited; added tags and fusions are not shown. Lines headed by an entry give the natural chain unless they say otherwise; changes in a name come on top.
UniProt Q99797: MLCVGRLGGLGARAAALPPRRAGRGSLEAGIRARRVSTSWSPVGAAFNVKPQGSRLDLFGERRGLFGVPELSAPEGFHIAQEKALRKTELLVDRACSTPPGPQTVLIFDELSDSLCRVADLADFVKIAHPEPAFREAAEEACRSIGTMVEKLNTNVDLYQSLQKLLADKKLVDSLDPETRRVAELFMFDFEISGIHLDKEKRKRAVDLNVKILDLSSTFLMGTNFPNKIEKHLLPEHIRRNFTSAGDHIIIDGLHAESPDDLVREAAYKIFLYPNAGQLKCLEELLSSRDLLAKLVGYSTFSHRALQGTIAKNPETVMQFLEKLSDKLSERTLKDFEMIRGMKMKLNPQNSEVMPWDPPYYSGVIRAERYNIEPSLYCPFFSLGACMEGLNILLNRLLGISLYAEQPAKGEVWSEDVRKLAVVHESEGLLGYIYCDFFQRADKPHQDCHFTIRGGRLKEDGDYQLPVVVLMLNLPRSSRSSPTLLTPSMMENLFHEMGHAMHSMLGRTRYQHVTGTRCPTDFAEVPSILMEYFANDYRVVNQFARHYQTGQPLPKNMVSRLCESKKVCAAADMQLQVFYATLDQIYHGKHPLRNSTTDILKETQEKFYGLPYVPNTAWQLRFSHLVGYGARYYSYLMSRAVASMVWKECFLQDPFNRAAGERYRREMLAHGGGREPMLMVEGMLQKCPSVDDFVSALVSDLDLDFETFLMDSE
UniProt Q5XKP0: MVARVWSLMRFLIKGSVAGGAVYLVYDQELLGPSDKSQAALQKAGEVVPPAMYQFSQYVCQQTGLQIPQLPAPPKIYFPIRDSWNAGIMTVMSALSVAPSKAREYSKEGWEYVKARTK
UniProt Q8N4V1: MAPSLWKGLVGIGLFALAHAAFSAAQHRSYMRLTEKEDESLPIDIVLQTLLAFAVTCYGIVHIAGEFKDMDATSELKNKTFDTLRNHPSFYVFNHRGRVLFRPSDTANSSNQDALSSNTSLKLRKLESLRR
UniProt Q13064: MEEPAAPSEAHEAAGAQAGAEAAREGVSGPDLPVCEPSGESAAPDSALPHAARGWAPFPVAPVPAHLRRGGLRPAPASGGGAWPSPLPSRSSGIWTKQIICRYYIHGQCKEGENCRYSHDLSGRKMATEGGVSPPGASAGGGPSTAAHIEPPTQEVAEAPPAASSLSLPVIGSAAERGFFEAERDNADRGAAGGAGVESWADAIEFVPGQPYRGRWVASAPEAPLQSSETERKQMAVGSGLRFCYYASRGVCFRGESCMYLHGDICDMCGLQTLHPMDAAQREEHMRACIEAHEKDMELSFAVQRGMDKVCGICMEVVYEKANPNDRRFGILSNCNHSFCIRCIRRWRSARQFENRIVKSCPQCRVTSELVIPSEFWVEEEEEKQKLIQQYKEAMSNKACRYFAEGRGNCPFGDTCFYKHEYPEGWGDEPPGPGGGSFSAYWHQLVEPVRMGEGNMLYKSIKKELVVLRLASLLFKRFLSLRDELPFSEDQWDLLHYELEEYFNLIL
UniProt P39210: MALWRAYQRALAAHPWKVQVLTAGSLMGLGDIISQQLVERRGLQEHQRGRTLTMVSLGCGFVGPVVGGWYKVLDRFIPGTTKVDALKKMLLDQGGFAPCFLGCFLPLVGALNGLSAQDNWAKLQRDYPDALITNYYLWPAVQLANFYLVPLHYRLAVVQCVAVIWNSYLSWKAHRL
UniProt Q8IYU8: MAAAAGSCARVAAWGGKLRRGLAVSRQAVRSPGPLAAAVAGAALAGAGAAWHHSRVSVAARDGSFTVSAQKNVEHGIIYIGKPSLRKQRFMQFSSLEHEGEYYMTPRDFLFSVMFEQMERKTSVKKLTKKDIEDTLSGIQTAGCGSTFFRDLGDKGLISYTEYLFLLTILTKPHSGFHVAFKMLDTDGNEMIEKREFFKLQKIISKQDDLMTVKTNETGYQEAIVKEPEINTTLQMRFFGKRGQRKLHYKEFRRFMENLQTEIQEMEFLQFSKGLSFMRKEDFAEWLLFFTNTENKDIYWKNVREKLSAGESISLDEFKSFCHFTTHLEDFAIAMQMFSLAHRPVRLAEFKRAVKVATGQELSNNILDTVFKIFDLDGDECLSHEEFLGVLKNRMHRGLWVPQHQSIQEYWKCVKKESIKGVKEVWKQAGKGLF
UniProt Q96PC5: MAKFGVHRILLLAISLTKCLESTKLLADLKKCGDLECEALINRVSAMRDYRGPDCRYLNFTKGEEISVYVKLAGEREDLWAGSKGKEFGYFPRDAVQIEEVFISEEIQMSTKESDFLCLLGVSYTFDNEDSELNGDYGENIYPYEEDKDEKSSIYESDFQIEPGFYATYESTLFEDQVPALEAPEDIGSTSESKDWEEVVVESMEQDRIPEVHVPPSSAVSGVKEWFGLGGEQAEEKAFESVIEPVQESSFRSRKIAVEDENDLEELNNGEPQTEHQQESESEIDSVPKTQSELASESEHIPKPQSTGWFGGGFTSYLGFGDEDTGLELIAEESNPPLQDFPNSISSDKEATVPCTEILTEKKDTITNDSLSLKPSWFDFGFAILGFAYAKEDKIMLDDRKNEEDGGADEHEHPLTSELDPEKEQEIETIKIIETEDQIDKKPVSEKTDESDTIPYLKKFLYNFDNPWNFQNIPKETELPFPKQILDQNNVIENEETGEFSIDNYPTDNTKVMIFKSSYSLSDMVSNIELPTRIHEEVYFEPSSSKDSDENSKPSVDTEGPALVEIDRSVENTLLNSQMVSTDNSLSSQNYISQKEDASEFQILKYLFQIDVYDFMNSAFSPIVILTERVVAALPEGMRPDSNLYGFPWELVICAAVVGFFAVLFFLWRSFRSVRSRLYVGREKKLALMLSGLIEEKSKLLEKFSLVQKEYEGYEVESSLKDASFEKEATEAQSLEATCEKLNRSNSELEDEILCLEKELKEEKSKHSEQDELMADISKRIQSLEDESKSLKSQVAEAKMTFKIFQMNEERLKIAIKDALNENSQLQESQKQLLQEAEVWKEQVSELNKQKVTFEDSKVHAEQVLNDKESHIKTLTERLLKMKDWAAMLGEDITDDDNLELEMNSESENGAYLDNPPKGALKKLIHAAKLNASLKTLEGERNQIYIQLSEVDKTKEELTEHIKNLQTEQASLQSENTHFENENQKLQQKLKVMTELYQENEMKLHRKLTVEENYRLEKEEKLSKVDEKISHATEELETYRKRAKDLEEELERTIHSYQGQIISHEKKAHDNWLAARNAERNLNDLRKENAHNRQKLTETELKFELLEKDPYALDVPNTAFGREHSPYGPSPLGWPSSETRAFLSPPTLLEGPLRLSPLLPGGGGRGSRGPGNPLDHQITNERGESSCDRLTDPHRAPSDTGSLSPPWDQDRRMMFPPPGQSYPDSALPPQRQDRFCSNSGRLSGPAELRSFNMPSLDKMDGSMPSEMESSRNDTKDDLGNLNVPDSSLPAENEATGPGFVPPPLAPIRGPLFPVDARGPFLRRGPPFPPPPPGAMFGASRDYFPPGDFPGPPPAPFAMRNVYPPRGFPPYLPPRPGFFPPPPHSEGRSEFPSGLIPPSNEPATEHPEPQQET
UniProt Q15014, whole entry, looked up: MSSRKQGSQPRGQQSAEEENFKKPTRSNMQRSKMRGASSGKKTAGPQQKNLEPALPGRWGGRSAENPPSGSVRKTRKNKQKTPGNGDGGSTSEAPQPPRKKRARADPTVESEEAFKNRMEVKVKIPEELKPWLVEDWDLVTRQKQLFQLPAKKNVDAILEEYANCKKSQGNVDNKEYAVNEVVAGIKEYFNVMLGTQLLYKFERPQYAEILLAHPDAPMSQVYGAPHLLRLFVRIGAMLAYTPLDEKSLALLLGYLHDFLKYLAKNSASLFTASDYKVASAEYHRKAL
UniProt Q96FF7: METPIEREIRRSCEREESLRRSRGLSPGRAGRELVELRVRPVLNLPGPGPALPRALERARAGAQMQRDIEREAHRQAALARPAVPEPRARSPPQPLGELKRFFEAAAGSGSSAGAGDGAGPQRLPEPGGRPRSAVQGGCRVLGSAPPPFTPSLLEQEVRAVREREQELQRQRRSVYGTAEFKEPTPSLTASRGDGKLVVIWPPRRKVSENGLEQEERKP
UniProt Q8NBR6: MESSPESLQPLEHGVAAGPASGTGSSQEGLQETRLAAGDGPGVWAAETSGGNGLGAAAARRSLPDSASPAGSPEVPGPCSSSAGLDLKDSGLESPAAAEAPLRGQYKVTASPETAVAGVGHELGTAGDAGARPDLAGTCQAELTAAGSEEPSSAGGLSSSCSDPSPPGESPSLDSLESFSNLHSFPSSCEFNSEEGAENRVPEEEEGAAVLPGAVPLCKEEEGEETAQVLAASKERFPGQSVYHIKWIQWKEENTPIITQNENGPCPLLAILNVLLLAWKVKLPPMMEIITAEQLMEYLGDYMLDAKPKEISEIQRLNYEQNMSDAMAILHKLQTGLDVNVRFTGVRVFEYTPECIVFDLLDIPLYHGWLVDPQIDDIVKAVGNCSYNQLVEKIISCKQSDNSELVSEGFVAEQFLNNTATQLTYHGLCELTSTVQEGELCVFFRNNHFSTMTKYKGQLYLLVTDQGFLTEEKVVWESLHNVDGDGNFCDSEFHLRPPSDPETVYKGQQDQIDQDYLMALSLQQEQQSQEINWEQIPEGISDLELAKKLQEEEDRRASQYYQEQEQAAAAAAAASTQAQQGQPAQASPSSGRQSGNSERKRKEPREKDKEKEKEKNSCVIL
UniProt Q9UBG0: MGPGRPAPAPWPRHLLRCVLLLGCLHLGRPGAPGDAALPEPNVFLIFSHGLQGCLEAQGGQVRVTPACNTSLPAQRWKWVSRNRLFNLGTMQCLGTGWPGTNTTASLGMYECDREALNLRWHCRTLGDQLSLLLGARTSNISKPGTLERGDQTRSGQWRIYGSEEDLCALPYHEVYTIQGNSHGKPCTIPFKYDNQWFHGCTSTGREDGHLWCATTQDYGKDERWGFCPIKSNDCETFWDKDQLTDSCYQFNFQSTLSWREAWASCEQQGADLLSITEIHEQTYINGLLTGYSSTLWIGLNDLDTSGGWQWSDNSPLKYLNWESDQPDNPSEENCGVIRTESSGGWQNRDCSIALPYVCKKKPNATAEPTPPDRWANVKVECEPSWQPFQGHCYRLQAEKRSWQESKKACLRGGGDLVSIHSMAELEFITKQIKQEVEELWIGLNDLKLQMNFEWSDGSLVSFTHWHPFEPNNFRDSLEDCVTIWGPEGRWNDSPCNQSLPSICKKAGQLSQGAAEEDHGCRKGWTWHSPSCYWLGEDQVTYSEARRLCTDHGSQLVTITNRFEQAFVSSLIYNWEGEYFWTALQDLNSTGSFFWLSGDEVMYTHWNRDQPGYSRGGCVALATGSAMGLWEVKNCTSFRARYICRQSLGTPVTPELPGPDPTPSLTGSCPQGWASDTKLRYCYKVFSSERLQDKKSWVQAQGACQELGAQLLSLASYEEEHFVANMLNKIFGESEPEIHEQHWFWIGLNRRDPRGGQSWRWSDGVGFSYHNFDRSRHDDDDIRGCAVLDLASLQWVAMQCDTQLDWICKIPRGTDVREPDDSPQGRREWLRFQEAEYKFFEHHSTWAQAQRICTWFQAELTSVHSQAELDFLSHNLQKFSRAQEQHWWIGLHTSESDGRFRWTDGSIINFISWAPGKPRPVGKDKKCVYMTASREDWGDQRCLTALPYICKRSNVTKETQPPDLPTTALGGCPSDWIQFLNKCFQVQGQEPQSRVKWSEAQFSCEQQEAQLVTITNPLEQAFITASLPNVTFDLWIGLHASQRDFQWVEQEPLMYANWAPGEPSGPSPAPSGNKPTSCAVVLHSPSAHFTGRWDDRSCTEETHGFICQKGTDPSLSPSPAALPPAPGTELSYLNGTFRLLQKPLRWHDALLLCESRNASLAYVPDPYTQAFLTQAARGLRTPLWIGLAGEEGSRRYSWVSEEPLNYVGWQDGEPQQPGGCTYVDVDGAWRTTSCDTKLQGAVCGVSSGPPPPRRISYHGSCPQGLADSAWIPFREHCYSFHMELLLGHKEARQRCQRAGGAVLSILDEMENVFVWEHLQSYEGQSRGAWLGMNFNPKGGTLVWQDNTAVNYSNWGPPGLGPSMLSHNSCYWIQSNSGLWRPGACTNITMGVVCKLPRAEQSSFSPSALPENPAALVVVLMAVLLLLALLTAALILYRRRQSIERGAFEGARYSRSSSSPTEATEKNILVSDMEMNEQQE
UniProt Q9HBH9: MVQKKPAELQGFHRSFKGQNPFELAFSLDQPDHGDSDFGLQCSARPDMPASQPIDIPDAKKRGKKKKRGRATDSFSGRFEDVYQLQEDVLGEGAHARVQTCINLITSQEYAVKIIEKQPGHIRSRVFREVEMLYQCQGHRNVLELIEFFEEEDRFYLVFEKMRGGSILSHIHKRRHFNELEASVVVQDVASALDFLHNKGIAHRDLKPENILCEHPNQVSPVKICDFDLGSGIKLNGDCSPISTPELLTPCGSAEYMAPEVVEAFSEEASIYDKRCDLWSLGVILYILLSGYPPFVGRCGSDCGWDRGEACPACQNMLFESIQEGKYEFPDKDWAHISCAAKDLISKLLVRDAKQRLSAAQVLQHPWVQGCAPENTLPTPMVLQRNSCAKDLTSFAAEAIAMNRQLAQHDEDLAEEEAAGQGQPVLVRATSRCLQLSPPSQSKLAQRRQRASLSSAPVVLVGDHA

Legend:
Test in all cases: log2 fold change, soluble protein after heating vs DMSO (PISA); higher = thermal stabilisation; K562 lysate, 10 uM; active = over 0.2 and 3.5 SD of the protein, either way, in both replicates (recomputed)
nilotinib = compound: Cc1cn(-c2cc(NC(=O)c3ccc(C)c(Nc4nccc(-c5cccnc5)n4)c3)cc(C(F)(F)F)c2)cn1 [nilotinib]
Procedure, shortened: (§1)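 Log-two fold change in thermal stability relative to solvent controls is reported from duplicates. For each sample, crude K562 extract from dounce-homogenised pellets in PBS pH 7.4 with 1 mM MgCl2, at 1 mg/mL protein, was treated with 10 μM compound for 30 min. Aliquots heated for 3 min across 48°C-58°C were pooled, brought to 0.5% NP-40 at 4°C and cleared at 21,000xg for 90 min. The supernatant was quantified by TMTpro 16plex LC-MS/MS with channel sums equalised.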

[1] = compound: Cc1nc(Nc2n[nH]c3c2CN(C(=O)N[C@H](CN(C)C)c2ccccc2)C3(C)C)c2sccc2n1
Procedure, shortened: as §1

dasatinib = compound: Cc1nc(Nc2ncc(C(=O)Nc3c(C)cccc3Cl)s2)cc(N2CCN(CCO)CC2)n1 [dasatinib]
Procedure, shortened: as §1

[2] = compound: Cc1ncc(-c2ccnc(Nc3ccc(S(C)(=O)=O)cc3)n2)n1C(C)C
Procedure, shortened: as §1

[3] = compound: Cn1cc(-c2ccc3c(c2)CCN3C(=O)Cc2cccc(C(F)(F)F)c2)c2c(N)ncnc21
Procedure, shortened: as §1

quisinostat = compound: Cn1cc(CNCC2CCN(c3ncc(C(=O)NO)cn3)CC2)c2ccccc21 [quisinostat]
Procedure, shortened: as §1

tipifarnib = compound: Cn1cncc1[C@@](N)(c1ccc(Cl)cc1)c1ccc2c(c1)c(-c1cccc(Cl)c1)cc(=O)n2C [tipifarnib]
Procedure, shortened: as §1

[4] = compound: NC(=O)Nc1cc(-c2cccc(F)c2)sc1C(=O)N[C@H]1CCCNC1
Procedure, shortened: as §1

[5] = compound: NC(=O)c1cnc(N[C@@H]2CCCC[C@@H]2N)nc1Nc1cccc(-n2nccn2)c1
Procedure, shortened: as §1

[6] = compound: NC1(c2ccc(-c3nc4ccn5c(=O)[nH]nc5c4cc3-c3ccccc3)cc2)CCC1
Procedure, shortened: as §1

Measured: log2 fold change

MIPEP (UniProt Q99797)
active: quisinostat 0.45
inactive: nilotinib 0.002 | [1] 0.024 | dasatinib 0.005 | [2] -0.008 | [3] 0.031 | tipifarnib 0.033 | [4] -0.016 | [5] 0.01 | [6] 0.054

MKNK1 (UniProt Q9BUB5)
inactive: nilotinib 0.009 | [1] 0 | dasatinib -0.054 | [2] -0.017 | [3] 0.019 | quisinostat 0 | tipifarnib 0.001 | [4] 0.024 | [5] 0.012 | [6] -0.001

MPST isoform 2 (UniProt P25325)
inactive: nilotinib 0.006 | [1] -0.002 | dasatinib 0.001 | [2] -0.003 | [3] -0.014 | quisinostat 0 | tipifarnib 0.07 | [4] 0.014 | [5] 0.01 | [6] 0

MIS18A (UniProt Q9NYP9)
inactive: nilotinib 0.001 | [1] 0.044 | dasatinib -0.017 | [2] -0.017 | [3] 0.042 | quisinostat 0.007 | tipifarnib 0.004 | [4] -0.016 | [5] -0.013 | [6] 0.048

MICOS13 (UniProt Q5XKP0)
inactive: nilotinib 0.001 | [1] -0.055 | dasatinib -0.052 | [2] -0.036 | [3] -0.032 | quisinostat 0.092 | tipifarnib -0.136 | [4] 0.078 | [5] -0.02 | [6] -0.03

MGME1 (UniProt Q9BQP7)
inactive: nilotinib 0.013 | [1] 0.028 | dasatinib 0.003 | [2] 0.008 | [3] -0.034 | quisinostat 0.005 | tipifarnib 0.025 | [4] 0 | [5] 0.02 | [6] -0.003

MOV10 (UniProt Q9HCE1)
inactive: nilotinib -0.027 | [1] -0.006 | dasatinib 0.007 | [2] -0.022 | [3] 0.005 | quisinostat -0.01 | tipifarnib 0.029 | [4] 0.018 | [5] -0.015 | [6] -0.007

MMGT1 (UniProt Q8N4V1)
inactive: nilotinib -0.028 | [1] 0.034 | dasatinib 0.004 | [2] 0.001 | [3] 0.009 | quisinostat -0.022 | tipifarnib 0.006 | [4] 0 | [5] 0.01 | [6] -0.023

MKLN1 (UniProt Q9UL63)
inactive: nilotinib 0.037 | [1] -0.005 | dasatinib -0.009 | [2] -0.013 | [3] 0.014 | quisinostat -0.019 | tipifarnib 0.012 | [4] 0.024 | [5] 0 | [6] 0.005

MOCS2 (UniProt O96007)
inactive: nilotinib 0.01 | [1] -0.035 | dasatinib 0.012 | [2] -0.036 | [3] -0.019 | quisinostat 0.02 | tipifarnib 0.025 | [4] -0.063 | [5] -0.004 | [6] -0.024

MKRN3 (UniProt Q13064)
inactive: nilotinib -0.064 | [1] 0.073 | dasatinib -0.022 | [2] -0.192 | [3] -0.093 | quisinostat -0.068 | tipifarnib 0.202 | [4] 0.052 | [5] -0.06 | [6] 0.175

MRPL23 (UniProt Q16540)
inactive: nilotinib 0.103 | [1] -0.097 | dasatinib -0.044 | [2] -0.052 | [3] 0.01 | quisinostat 0.029 | tipifarnib -0.11 | [4] -0.019 | [5] -0.038 | [6] -0.025

Random excerpt: two entries already listed.
MICOS13 (UniProt Q5XKP0)
inactive: nilotinib 0.001 | [1] -0.055 | dasatinib -0.052 | [2] -0.036 | [3] -0.032 | quisinostat 0.092 | tipifarnib -0.136 | [4] 0.078 | [5] -0.02 | [6] -0.03

MOCS2 (UniProt O96007)
inactive: nilotinib 0.01 | [1] -0.035 | dasatinib 0.012 | [2] -0.036 | [3] -0.019 | quisinostat 0.02 | tipifarnib 0.025 | [4] -0.063 | [5] -0.004 | [6] -0.024

(listing goes on)

MPV17 (UniProt P39210)
inactive: nilotinib 0.225 | [1] 0.041 | dasatinib 0.152 | [2] 0.072 | [3] 0.095 | quisinostat -0.011 | tipifarnib -0.116 | [4] -0.132 | [5] -0.125 | [6] 0.015

MICU2 (UniProt Q8IYU8)
inactive: nilotinib -0.052 | [1] 0.02 | dasatinib -0.026 | [2] 0.048 | [3] -0.015 | quisinostat -0.03 | tipifarnib -0.043 | [4] 0.07 | [5] 0.105 | [6] -0.009

MPDZ (UniProt O75970)
inactive: nilotinib -0.097 | [1] 0.245 | dasatinib -0.082 | [2] -0.059 | [3] -0.049 | quisinostat -0.084 | tipifarnib 0.328 | [4] -0.057 | [5] -0.041 | [6] 0.112

MIA2 (UniProt Q96PC5)
inactive: nilotinib 0.04 | [1] -0.003 | dasatinib -0.031 | [2] 0.067 | [3] 0.013 | quisinostat -0.054 | tipifarnib -0.057 | [4] 0.042 | [5] 0.007 | [6] 0.042

MRPL12 (UniProt P52815)
inactive: nilotinib 0.032 | [1] -0.01 | dasatinib 0.034 | [2] 0.099 | [3] -0.013 | quisinostat 0.084 | tipifarnib 0.031 | [4] -0.023 | [5] -0.022 | [6] -0.006

MRAS (UniProt O14807)
inactive: nilotinib -0.094 | [1] -0.062 | dasatinib -0.034 | [2] -0.105 | [3] -0.041 | quisinostat 0.042 | tipifarnib 0.035 | [4] -0.074 | [5] -0.149 | [6] -0.022

MRNIP (UniProt Q6NTE8)
inactive: nilotinib 0.126 | [1] -0.048 | dasatinib 0.075 | [2] -0.058 | [3] 0.096 | quisinostat -0.117 | tipifarnib -0.096 | [4] 0.056 | [5] 0.034 | [6] 0.057

MIEF1 (UniProt L0R8F8)
inactive: nilotinib -0.062 | [1] 0.025 | dasatinib -0.057 | [2] -0.037 | [3] 0.022 | quisinostat 0.053 | tipifarnib -0.147 | [4] -0.085 | [5] 0.009 | [6] -0.013

MORF4L2 (UniProt Q15014)
inactive: nilotinib 0 | [1] -0.035 | dasatinib -0.001 | [2] -0.012 | [3] -0.051 | quisinostat 0.005 | tipifarnib -0.015 | [4] 0.002 | [5] -0.006 | [6] -0.002

MICAL2 (UniProt O94851)
inactive: nilotinib 0.087 | [1] 0.034 | dasatinib -0.12 | [2] 0.077 | [3] -0.083 | quisinostat -0.022 | tipifarnib -0.045 | [4] 0.033 | [5] 0.167 | [6] 0.033

MLEC (UniProt Q14165)
inactive: nilotinib -0.033 | [1] 0.003 | dasatinib -0.036 | [2] -0.008 | [3] 0.007 | quisinostat 0.017 | tipifarnib 0.005 | [4] -0.019 | [5] -0.009 | [6] -0.025

MOSPD2 (UniProt Q8NHP6)
inactive: nilotinib 0.054 | [1] -0.146 | dasatinib 0.006 | [2] -0.009 | [3] 0.015 | quisinostat -0.096 | tipifarnib 0.089 | [4] -0.034 | [5] -0.043 | [6] -0.026

MISP3 (UniProt Q96FF7)
inactive: nilotinib -0.042 | [1] 0.156 | dasatinib -0.024 | [2] 0.095 | [3] -0.119 | tipifarnib 0.139 | [5] 0.115

MINDY2 (UniProt Q8NBR6)
inactive: nilotinib 0.086 | [1] -0.062 | [2] 0.005 | quisinostat 0.033 | tipifarnib -0.058 | [4] 0.086 | [5] -0.027

MRC2 (UniProt Q9UBG0)
inactive: nilotinib -0.001 | [1] -0.055 | dasatinib -0.201 | [2] 0.26 | [3] 0.073 | quisinostat -0.056 | tipifarnib 0.083 | [4] 0.144 | [6] 0.068

MKNK2 (UniProt Q9HBH9)
inactive: nilotinib -0.1 | [1] -0.093 | dasatinib -0.141 | [2] -0.025 | [3] 0.14 | tipifarnib -0.11 | [6] -0.137

MPHOSPH8 (UniProt Q99549)
inactive: dasatinib 0.065 | [3] -0.041 | quisinostat -0.07 | [4] 0.012 | [5] 0.018 | [6] 0.027

MOCS2 (UniProt O96033)
inactive: dasatinib 0.044 | [3] -0.026 | quisinostat -0.011 | [4] 0.025 | [5] -0.033

MROH1 (UniProt Q8NDA8)
inactive: dasatinib -0.115 | [3] -0.117 | quisinostat -0.167 | [4] 0.037
